In paper doi:10.1101/061564:
Like-named read-outs stand apart in the source and are kept apart here. These are yes or no findings as the source states them, for the method shown. For some of these results: A result given as binding can be weak or reduced; the word gives no strength. Values belong to the molecule of their own block, whether it stands above or below them.

Legend:
Test in all cases: two-hybrid
[1] = target: T1, ELF3-7Q (variant in Col) (Arabidopsis thaliana) (UniProt O82804)
T1 sequence: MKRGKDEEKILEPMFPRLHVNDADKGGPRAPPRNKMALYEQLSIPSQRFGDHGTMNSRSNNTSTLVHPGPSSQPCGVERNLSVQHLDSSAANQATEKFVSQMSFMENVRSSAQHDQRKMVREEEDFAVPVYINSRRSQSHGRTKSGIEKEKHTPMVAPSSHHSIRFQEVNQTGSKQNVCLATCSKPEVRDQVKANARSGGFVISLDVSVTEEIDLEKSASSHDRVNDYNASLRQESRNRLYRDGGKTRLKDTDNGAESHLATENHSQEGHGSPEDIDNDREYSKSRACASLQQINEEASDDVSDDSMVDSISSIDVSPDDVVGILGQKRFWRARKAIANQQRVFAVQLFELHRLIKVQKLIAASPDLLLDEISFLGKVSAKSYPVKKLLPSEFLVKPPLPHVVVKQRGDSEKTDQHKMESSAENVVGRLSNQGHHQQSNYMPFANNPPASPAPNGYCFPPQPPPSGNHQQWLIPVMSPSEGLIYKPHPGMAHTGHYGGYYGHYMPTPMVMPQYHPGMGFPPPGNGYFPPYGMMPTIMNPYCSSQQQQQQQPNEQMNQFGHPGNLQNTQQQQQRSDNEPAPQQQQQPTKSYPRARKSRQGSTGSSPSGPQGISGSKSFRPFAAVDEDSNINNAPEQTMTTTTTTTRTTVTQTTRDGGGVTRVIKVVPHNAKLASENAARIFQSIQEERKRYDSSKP

[2] = target: T1, ELF3-7Q (variant in Col) (Arabidopsis thaliana); remark: listed apart in the source
[3] = target: ELF3-16Q (variant in Ws) (Arabidopsis thaliana) (UniProt O82804)

binding [1]: binds | binding [2]: binds
Molecule: PLAC8-domain-containing protein AT4G23470 (Arabidopsis thaliana)

binding [2]: binds
Molecule: PHYB-Cterm, Ws variant (C-terminal truncation of PHYB sufficient for ELF3 interaction) (Arabidopsis thaliana) (domain or fragment)

binding [3]: no binding
B1: LSH9 (LIGHT-… SHORT HYPOCOTYLS 9), Col variant (protein, UniProt Q9SN52 1-191)
chain: MSSDRHTPTKDPPDHPSSSSNHHKQPLPPQPQQPLSRYESQKRRDWNTFVQYLKSQNPPLMMSQFDYTHVLSFLRYLDQFGKTKVHHQACVFFGQPDPPGPCTCPLKQAWGSLDALIGRLRAAYEEHGGGSPDTNPFANGSIRVHLREVRESQAKARGIPYRKKKRRKTKNEVVVVKKDVANSSTPNQSFT
